# Test results published in patent US20220280644A1, “"TRPswitch" - A STEP FUNCTION CHEMO-OPTOGENETIC LIGAND” (UNIVERSITY OF UTAH RESEARCH FOUNDATION, priority 2019, published 2022).
# Some entries share one result that the patent states for a list of compounds.
# System: wild-type zebrafish larvae
# Test: Behavioral assay: light-induced motion response of wild-type larvae
# Type: in vivo, Zebrafish (Danio rerio)
# Settings: violet LED 415 nm
# Description: A total of 1,000 compounds were selected from the ChemBridge Corp. catalog. Compounds were dissolved in DMSO at a stock concentration of 1 μg/μL (˜1.5 mM). The library was screened at a 1:100 dilution in E3 solution for a final concentration of ˜15 μM. Negative controls were treated with an equal volume of DMSO. Groups of 3 larvae at 3 days post fertilization (dpf) were distributed into the wells of 96-well clear bottom black microplates (07-200-567; Fisher Scientific) in 150 μL E3 before the addition of small molecules. […]
# Larvae in each of the wells were exposed to four 1 second flashes of light stimulus in the following order: 450-500 nm (WL1), 415-455 nm (WL2), 352-402 nm (WL3), white light (WL4), with a 5 second inter-stimulus interval. […] 290 frames of digital video were recorded per well at 10 FPS using an EMCCD camera (C9100; Hamamatsu) mounted on an inverted compound microscope (AxioObserver A1; Zeiss) with a NA 0.03 1.25× objective and a barrier with a 0.7 mm diameter opening to restrict light scattering to the sample. […]
# To analyze digital video recordings, custom MetaMorph software scripts were used to automatically threshold the video to identify the area of larvae in each frame. […] The motion index was calculated as the percentage change between the threshold area in the frame right before light activation and the new combined threshold area. […]
structure (smiles),measurement,value
"O=C(Nc1ccc(/N=N/c2ccccc2)c(NC(=O)c2ccco2)c1)c1ccco1 [Compound 1, (E)-N,N′-(4-(phenyldiazenyl)-1,3-phenylene)bis(furan-2-carboxamide)]",light-pulse length at which probability to respond reached its maximum,< 1 s
"Cc1nn(C)c(C)c1/N=N/c1ccc(NC(=O)c2cccs2)cc1NC(=O)c1cccs1 [Compound 9, (E)-N,N′-(4-((1,3,5-trimethyl-1H-pyrazol-4-yl)diazenyl)-1,3-phenylene)bis(thiophene-2-carboxamide)]",light-pulse length at which probability to respond reached its maximum,< 1 s
